Binding data for 2 molecules are collected here from paper PMC5894220.

No constants are given. Whether binding was seen depends on the method and setting. Binding seen in cells or lysates may run through a third protein. For part of these data: Binding calls can cover weak binding; strength is not graded here.

Assay [1] deals with T1, starch synthase IIa (rice, Oryza sativa japonica cv. Nipponbare (endogenous in developing seeds)) (UniProt Q0DDE3).
T1 sequence: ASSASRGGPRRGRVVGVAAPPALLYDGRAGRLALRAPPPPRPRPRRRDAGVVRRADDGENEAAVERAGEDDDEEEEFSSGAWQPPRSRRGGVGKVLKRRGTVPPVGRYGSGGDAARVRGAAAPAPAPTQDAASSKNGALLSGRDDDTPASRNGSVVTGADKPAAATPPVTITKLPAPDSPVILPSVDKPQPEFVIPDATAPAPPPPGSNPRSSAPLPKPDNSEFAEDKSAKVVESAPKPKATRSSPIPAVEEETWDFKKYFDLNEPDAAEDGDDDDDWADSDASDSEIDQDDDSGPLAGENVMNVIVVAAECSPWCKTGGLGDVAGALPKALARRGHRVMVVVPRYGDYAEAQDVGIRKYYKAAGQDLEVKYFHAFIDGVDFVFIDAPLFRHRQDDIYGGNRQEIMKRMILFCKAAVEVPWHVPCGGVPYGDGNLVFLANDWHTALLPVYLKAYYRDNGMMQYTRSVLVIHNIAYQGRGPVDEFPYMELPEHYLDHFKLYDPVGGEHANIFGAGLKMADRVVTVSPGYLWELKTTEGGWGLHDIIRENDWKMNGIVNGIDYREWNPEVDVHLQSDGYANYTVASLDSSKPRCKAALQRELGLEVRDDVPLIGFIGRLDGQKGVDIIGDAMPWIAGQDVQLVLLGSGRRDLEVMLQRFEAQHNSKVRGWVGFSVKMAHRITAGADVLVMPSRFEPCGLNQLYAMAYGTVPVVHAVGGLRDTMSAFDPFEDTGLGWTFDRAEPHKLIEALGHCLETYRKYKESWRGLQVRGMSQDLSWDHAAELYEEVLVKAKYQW
Nature of the assay: condition: only in extract of ss1^L/ss2a^L/SS3a seeds; co-IP; as a1, soluble proteins of developing seeds of ss1^L/ss2a^L/SS3a (SSI reduced); control with pre-immune serum.

In assay [2] the target is T1, starch synthase IIa (rice, Oryza sativa japonica cv. Nipponbare (endogenous in developing seeds)). Briefly: co-IP; immuno-precipitation with isozyme specific antibodies from soluble proteins of developing rice seeds, immuno-blotting; wild-type Nipponbare (SS1/ss2a^L/SS3a); the BEI-BEIIb, BEI-PUL and Pho1-BEIIa pairs also in the three mutant lines; control with pre-immune serum.

For assay [3] the target is unchanged. Briefly: condition: only in extract of SS1/ss2a^L/ss3a seeds; co-IP; as a1, soluble proteins of developing seeds of SS1/ss2a^L/ss3a (SSIIIa absent); control with pre-immune serum.
Assay [4] shares this target. Briefly: condition: only in extract of ss1^L/ss2a^L/ss3a seeds; co-IP; as a1, soluble proteins of developing seeds of ss1^L/ss2a^L/ss3a (SSI reduced, SSIIIa absent); control with pre-immune serum.
Assay [5] addresses starch branching enzyme IIb (rice, Oryza sativa japonica cv. Nipponbare (endogenous in developing seeds)). Nature of the assay: co-IP; immuno-precipitation with isozyme specific antibodies from soluble proteins of developing rice seeds, immuno-blotting; wild-type Nipponbare (SS1/ss2a^L/SS3a); the BEI-BEIIb, BEI-PUL and Pho1-BEIIa pairs also in the three mutant lines; control with pre-immune serum.

Assay [6] concerns the target pullulanase (rice, Oryza sativa japonica cv. Nipponbare (endogenous in developing seeds)). The description is as above.

As to starch branching enzyme IIb, the binding result in assay [1] is on record as “no binding”; in assay [2], “binds”; in assay [3] it was “no binding”; in assay [4] it was “no binding”.

B1: starch branching enzyme I (enzyme, UniProt Q01401 65-820)
chain: TMVTVVEEVDHLPIYDLDPKLEEFKDHFNYRIKRYLDQKCLIEKHEGGLEEFSKGYLKFGINTVDGATIYREWAPAAQEAQLIGEFNNWNGAKHKMEKDKFGIWSIKISHVNGKPAIPHNSKVKFRFRHGGGAWVDRIPAWIRYATFDASKFGAPYDGVHWDPPACERYVFKHPRPPKPDAPRIYEAHVGMSGEEPEVSTYREFADNVLPRIRANNYNTVQLMAIMEHSYYASFGYHVTNFFAVSSRSGTPEDLKYLVDKAHSLGLRVLMDVVHSHASNNVTDGLNGYDVGQNTHESYFHTGDRGYHKLWDSRLFNYANWEVLRFLLSNLRYWMDEFMFDGFRFDGVTSMLYHHHGINKGFTGNYKEYFSLDTDVDAIVYMMLANHLMHKLLPEATIVAEDVSGMPVLCRPVDEGGVGFDFRLAMAIPDRWIDYLKNKEDRKWSMSEIVQTLTNRRYTEKCIAYAESHDQSIVGDKTIAFLLMDKEMYTGMSDLQPASPTINRGIALQKMIHFITMALGGDGYLNFMGNEFGHPEWIDFPREGNNWSYDKCRRQWSLVDTDHLRYKYMNAFDQAMNALEEEFSFLSSSKQIVSDMNEKDKVIVFERGDLVFVFNFHPNKTYKGYKVGCDLPGKYRVALDSDALVFGGHGRVGHDVDHFTSPEGMPGVPETNFNNRPNSFKVLSPPRTCVAYYRVDEDREELRRGGAVASGKIVTEYIDVEATSGETISGGWKGSEKDDCGKKGMKFVFRSSDEDCK
With B1, the binding result in assay [5] and in assay [6] was “binds” each time.
